# Test results taken from PubChem BioAssay AID493014 (National Center for Advancing Translational Sciences (NCATS), 2011).
# The list shows a part of the results. The main result of the screen is listed elsewhere. These columns were measured beside it and carry no call. Most of these compounds were active or inconclusive in the main read-out, so they are no random draw. Words in brackets tell the shape of the fitted curve; partial curves, single points and poor fits give uncertain potencies.
# Test: qHTS Assay to Find Inhibitors of Chronic Active B-Cell Receptor Signaling
# Settings: ABC-DLBCL IkBa-CBG/CBR reporter, luminescence ratio (green luciferase fused to IkBa over red control in TMD8 lymphoma cells), 4 h
# Outline: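 TMD8 human ABC-DLBCL cells with doxycycline-inducible IκBα–green luciferase fusion and unfused red luciferase, in 0.5% FBS medium; compounds up to 46 uM, 4 h at 37C. Green/red luminescence ratio, filter-overlap corrected, fitted to concentration-response curves.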
# [1] = measured here: CBR red luminescence, cell number
# [2] = measured here: IkBa-CBG green luminescence
structure (smiles),measurement,setting,value
Cc1ccc2[nH]c3c(N4CCN(Cc5ccccc5)CC4)ncnc3c2c1,AC50,[1],"18.4 µM [falling, partial curve, poor fit]"
Cc1ccc2c(c1)C1CN(C)CCC1N2C(=O)COc1ccccc1F (stereo not drawn),AC50,[1],"35.5 µM [falling, single point]"
CCOC(=O)c1c(C)[nH]c(C)c1C(=O)COC(=O)/C=C/c1ccc(OC)cc1,AC50,[1],"14.6 µM [rising, partial curve]"
same,AC50,[2],"16.4 µM [falling, partial curve, poor fit]"
O=C(N[C@H]1CC1c1ccccc1)c1ccc([N+](=O)[O-])cc1 (stereo partly drawn),AC50,[1],"0.316 µM [rising, full curve, poor fit]"
CC#CC[N+](C)(C)CCCCCCCCCCCC,AC50,[1],"13 µM [falling, partial curve]"
CNc1oc(-c2ccco2)nc1C#N,AC50,[1],"20.6 µM [falling, single point]"
COCCCn1c(SCC(=O)NNC(=O)c2cccc(O)c2)nnc1-c1ccncc1,AC50,[1],"17.8 µM [rising, partial curve, poor fit]"
CN(C)c1ccc(C2Nc3ccccc3C(=O)N2CCCN2CCOCC2)cc1 (stereo not drawn),AC50,[1],"4.47 µM [falling, full curve, poor fit]"
Cc1ccc(-c2nnc(CN3CCCCC3C)o2)cc1 (stereo not drawn),AC50,[1],"15.8 µM [rising, single point]"
COc1ccc(NC(=O)c2cccc(N3C(=O)C4C5C=CC(C5)C4C3=O)c2)cc1 (stereo not drawn),AC50,[1],"10 µM [falling, partial curve]"
Cc1ccc2nc(NC(=O)CN(C)S(=O)(=O)c3cccc4nsnc34)sc2c1,AC50,[1],"25.9 µM [rising, single point]"
O=S(=O)(NCCNS(=O)(=O)c1c(F)cccc1F)c1ccc2c(c1)OCCO2,AC50,[1],"0.58 µM [rising, full curve, poor fit]"
Cc1cc(OCC(O)CN2CCCC2)ccc1C(C)C (stereo not drawn),AC50,[1],"31.6 µM [falling, single point]"
CCOC(=O)/C=C1\SCC(=O)N1CCOc1cccc(Br)c1,AC50,[1],"15.8 µM [falling, single point]"
Brc1ccc(-c2ccc(/C=N/Nc3nc4ccccc4[nH]3)o2)cc1,AC50,[1],"8.2 µM [falling, partial curve]"
same,AC50,[2],"18.4 µM [falling, single point]"
O=C(Nc1ccccc1C(=O)NCCCn1ccnc1)c1ccc(Cl)cc1Cl,AC50,[1],"10.3 µM [falling, partial curve]"
C/C(=N/NS(=O)(=O)c1ccc(Br)cc1)c1ccc(NC(=O)c2ccc(C)o2)cc1,AC50,[1],"14.1 µM [falling, partial curve]"
CCOC(=O)N1CCN(C(c2cccnc2)c2ccc3cccnc3c2O)CC1 (stereo not drawn),AC50,[1],"6.51 µM [rising, full curve, poor fit]"
COc1ccc(-n2c(N)c(C#N)c3ccc([N+](=O)[O-])cc3c2=O)cc1,AC50,[1],"9.2 µM [falling, partial curve]"
COc1ccc(-c2cnn3cc(-c4cccc(Cl)c4)cnc23)cc1,AC50,[1],"0.631 µM [rising, full curve, poor fit]"
Oc1ccc(/C=C/c2cc(O)cc(O)c2)cc1,AC50,[1],"7.08 µM [falling, partial curve]"
same,AC50,[2],"18.4 µM [falling, partial curve, poor fit]"
CC(C)(C)[C@@H]1COC(=O)[C@H](Cc2ccc(F)cc2)C/C=C\C[C@@H](CC(=O)NCCO)C(=O)N1,AC50,[1],"6.51 µM [falling, single point]"
CC(C)(C)c1ccc(Cn2c(=N)n(CC(O)c3ccco3)c3ccccc32)cc1 (stereo not drawn),AC50,[1],"35.5 µM [falling, single point]"
COC(=O)c1ccc(Oc2nc(C)cc(Oc3ccccc3)n2)cc1,AC50,[1],"2.91 µM [falling, partial curve, poor fit]"
O=C1CSC(c2cccnc2)N1CCc1ccccn1 (stereo not drawn),AC50,[1],"4.47 µM [falling, full curve, poor fit]"
O=C(Nc1ccc(-c2ccc(N3CCCCC3)nn2)cc1)c1ccco1,AC50,[1],"5.8 µM [rising, full curve, poor fit]"
CCCOC(=O)c1ccc(NC(=O)/C=C/c2cccs2)cc1,AC50,[1],"9.2 µM [falling, partial curve]"
O=c1ccc2ccccc2n1Cc1cccc(F)c1,AC50,[1],"22.4 µM [rising, single point]"
COc1ccc(OC)c(N(CC(=O)Nc2cccnc2)S(=O)(=O)c2ccc(C)cc2)c1,AC50,[1],"0.291 µM [falling, full curve, poor fit]"
Cc1nc(COc2ccc(C(=O)Nc3ccccc3N3CCOCC3)cc2)cs1,AC50,[1],"5.01 µM [falling, partial curve]"
Nc1cc(C(=O)OCC(=O)N2CCCC2=O)ccc1Cl,AC50,[1],"32.6 µM [rising, partial curve, poor fit]"
O=C(NCCC1CC1(Cl)Cl)c1ccc([N+](=O)[O-])cc1 (stereo not drawn),AC50,[1],"8.91 µM [rising, partial curve, poor fit]"
O=C(Nc1nc(-c2ccc(F)c(F)c2)cs1)c1cc([N+](=O)[O-])ccc1N1CCOCC1,AC50,[1],"16.4 µM [falling, partial curve, poor fit]"
CN(C)Cc1c(O)ccc2c1O/C(=C\C=C\c1ccccc1)C2=O,AC50,[1],"35.5 µM [falling, single point]"
Cc1cc2c(c(SCC(=O)NCc3ccccc3Cl)n1)C(=O)OC2,AC50,[1],"3.55 µM [rising, partial curve, poor fit]"
COc1ccc(S(=O)(=O)N2CCOCC2)cc1NC(=O)c1cc2c(s1)CCCC2,AC50,[1],"2.91 µM [rising, single point]"
O=c1sc(N2CCN(c3ccc(F)cc3)CC2)nc2ccsc12,AC50,[1],"3.66 µM [rising, full curve, poor fit]"
Cc1cccc(/C(N)=N/OC(=O)Cc2ccccc2)c1,AC50,[1],"11.2 µM [rising, partial curve]"
O=C(CCCN1C(=O)/C(=C/c2cccc(Br)c2)SC1=S)NCCCN1CCOCC1,AC50,[1],"5.01 µM [falling, partial curve]"
Cc1ccc(CSc2nnc(-c3cccs3)n2C)cc1,AC50,[1],"16.4 µM [falling, single point]"

# 2 records drawn at random from the list so far:
structure (smiles),measurement,setting,value
O=C(NCCC1CC1(Cl)Cl)c1ccc([N+](=O)[O-])cc1 (stereo not drawn),AC50,[1],"8.91 µM [rising, partial curve, poor fit]"
CC#CC[N+](C)(C)CCCCCCCCCCCC,AC50,[1],"13 µM [falling, partial curve]"
